Taken from: PubChem BioAssay AID1259278 (Sanger Institute, 2017)

- Screen: 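Knock-downs synthetic lethal with BYL719, cetuximab or trametinib in colorectal cancer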 (follow-up of hits)
- Cell system: human HT55 colorectal cancer cells
- Reagents: single siRNA against human genes
- Treatment: anchor drugs added to knock-down cells: cetuximab 5 µg/ml, trametinib 10 nM or BYL719 1 µM, against DMSO vehicle; chosen to hurt viability little alone
- Detection: 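Viability averaged against the control control pool 2 (non-targeting), plus a synergy score of knock-down with drug for each anchor drug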
- Direction: synergy score with BYL719 and synergy score with cetuximab and synergy score with trametinib: higher = stronger combined killing with knock-down
- Hit rule: 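a synergy score over 0.10 with BYL719, cetuximab or trametinib makes the knock-down a hit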
- Calls: active = synergy with an anchor drug; inactive = no synergy
Shown is a random part of 160 reagents tested. 54 of all reagents (34%) count as active. 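Each call rests on one siRNA duplex in one cell line; gene-level support needs several duplexes and lines.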 Reagents against one gene are numbered here. Further read-outs or replicates are left out here. The record does not give: the amount of reagent, the time to read-out.

STK36 (GeneID 27148) #1
- synergy score with BYL719: 0.0224
- synergy score with cetuximab: 0.167
- synergy score with trametinib: 0.0999
- Call: active

STK36 (GeneID 27148) #2
- synergy score with BYL719: -0.0256
- synergy score with cetuximab: 0.256
- synergy score with trametinib: 0.188
- Call: active

STK36 (GeneID 27148) #3
- synergy score with BYL719: -0.348
- synergy score with cetuximab: -0.114
- synergy score with trametinib: -0.0279
- Call: inactive

STK36 (GeneID 27148) #4
- synergy score with BYL719: -0.0333
- synergy score with cetuximab: 0.0241
- synergy score with trametinib: 0.0417
- Call: inactive

IKBKB (GeneID 3551) #1
- synergy score with BYL719: -0.176
- synergy score with cetuximab: 0.114
- synergy score with trametinib: -0.182
- Call: active

IKBKB (GeneID 3551) #2
- synergy score with BYL719: -0.0151
- synergy score with cetuximab: -0.0377
- synergy score with trametinib: -0.0215
- Call: inactive

IKBKB (GeneID 3551) #3
- synergy score with BYL719: -0.196
- synergy score with cetuximab: 0.0983
- synergy score with trametinib: 0.0466
- Call: inactive

IKBKB (GeneID 3551) #4
- synergy score with BYL719: -0.225
- synergy score with cetuximab: -0.0394
- synergy score with trametinib: -0.124
- Call: inactive
